The values below come from the supplement of paper PMC11006884.

Amino acid sequences for entries named in this document (tags omitted). A change or cut given only in a name is not applied to a line headed by its entry.
UniProt Q9UIV1, whole entry: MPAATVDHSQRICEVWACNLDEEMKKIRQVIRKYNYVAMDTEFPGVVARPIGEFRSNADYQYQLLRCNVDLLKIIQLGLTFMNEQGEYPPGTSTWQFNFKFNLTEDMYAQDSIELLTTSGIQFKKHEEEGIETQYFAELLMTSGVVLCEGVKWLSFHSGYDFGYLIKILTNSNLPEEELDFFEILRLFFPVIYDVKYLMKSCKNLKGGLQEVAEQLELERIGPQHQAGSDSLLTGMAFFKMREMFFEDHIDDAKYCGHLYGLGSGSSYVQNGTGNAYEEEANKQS
UniProt Q9UHD8: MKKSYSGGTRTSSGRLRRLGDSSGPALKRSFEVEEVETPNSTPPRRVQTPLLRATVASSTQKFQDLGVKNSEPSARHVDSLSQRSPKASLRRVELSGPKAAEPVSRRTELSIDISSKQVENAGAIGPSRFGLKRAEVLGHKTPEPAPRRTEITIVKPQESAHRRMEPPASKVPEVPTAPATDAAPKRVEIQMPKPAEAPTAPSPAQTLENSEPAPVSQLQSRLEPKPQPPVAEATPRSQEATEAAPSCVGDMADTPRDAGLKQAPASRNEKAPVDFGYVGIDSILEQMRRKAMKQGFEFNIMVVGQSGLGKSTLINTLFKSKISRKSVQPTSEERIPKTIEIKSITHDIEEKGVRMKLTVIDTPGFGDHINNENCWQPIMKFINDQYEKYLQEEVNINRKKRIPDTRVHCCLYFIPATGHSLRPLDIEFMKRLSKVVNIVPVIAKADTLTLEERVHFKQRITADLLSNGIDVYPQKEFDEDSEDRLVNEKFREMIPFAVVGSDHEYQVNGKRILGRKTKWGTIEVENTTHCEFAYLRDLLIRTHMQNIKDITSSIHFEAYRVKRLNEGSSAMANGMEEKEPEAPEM
UniProt Q9UNF1: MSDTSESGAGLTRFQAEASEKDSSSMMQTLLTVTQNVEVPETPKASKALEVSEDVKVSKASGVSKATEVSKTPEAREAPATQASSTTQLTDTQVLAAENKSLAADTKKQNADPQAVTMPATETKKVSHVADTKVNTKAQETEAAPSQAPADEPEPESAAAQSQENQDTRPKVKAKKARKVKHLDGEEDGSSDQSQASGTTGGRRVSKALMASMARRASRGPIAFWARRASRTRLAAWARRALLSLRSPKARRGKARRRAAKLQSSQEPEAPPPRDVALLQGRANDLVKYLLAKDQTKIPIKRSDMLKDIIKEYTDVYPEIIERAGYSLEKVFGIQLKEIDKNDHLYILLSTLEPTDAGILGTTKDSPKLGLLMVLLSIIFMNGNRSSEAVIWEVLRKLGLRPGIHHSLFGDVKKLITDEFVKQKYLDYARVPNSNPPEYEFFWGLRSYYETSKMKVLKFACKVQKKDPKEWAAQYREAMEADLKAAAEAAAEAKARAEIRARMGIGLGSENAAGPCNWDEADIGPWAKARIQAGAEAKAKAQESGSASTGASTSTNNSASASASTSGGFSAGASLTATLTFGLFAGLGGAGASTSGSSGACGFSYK
UniProt Q9ULF5: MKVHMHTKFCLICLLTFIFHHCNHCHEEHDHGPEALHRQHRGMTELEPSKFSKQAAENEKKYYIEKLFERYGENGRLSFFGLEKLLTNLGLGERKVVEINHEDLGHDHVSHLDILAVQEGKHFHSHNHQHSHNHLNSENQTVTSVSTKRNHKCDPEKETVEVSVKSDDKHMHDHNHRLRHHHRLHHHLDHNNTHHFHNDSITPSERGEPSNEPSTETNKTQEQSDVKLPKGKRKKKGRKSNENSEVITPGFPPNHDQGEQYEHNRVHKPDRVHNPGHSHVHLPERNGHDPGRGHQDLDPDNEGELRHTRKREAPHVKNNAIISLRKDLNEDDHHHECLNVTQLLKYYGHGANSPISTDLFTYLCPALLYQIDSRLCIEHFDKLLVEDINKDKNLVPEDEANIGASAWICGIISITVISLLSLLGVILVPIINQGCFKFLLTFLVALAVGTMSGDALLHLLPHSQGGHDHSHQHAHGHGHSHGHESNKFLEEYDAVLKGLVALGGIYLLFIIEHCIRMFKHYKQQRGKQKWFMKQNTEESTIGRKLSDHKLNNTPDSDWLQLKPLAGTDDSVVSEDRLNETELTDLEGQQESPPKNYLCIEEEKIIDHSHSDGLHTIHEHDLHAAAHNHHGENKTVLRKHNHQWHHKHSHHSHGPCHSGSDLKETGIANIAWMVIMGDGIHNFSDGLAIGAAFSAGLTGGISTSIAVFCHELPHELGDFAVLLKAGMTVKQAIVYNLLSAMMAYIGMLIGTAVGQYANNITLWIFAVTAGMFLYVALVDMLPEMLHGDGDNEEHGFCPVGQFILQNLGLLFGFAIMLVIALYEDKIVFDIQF
UniProt Q9UKN8: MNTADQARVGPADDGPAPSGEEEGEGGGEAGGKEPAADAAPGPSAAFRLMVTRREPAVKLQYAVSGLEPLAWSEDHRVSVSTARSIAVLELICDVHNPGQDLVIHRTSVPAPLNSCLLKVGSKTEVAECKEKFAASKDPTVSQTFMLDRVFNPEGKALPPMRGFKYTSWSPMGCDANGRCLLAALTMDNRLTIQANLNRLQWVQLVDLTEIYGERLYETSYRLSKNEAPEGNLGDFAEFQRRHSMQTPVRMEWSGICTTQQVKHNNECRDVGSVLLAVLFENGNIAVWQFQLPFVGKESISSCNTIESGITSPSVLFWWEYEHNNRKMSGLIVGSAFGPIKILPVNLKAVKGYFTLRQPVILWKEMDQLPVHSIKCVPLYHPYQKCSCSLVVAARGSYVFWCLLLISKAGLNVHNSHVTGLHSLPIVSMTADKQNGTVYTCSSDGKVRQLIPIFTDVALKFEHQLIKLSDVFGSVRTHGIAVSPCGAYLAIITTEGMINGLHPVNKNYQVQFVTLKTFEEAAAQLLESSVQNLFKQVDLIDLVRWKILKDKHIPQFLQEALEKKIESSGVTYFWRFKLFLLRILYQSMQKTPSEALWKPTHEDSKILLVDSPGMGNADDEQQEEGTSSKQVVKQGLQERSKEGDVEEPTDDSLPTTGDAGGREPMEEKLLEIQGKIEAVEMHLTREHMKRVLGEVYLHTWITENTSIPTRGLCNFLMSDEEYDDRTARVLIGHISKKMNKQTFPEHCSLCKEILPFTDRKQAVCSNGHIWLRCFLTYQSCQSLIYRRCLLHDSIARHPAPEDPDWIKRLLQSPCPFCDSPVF
UniProt Q9UPN9: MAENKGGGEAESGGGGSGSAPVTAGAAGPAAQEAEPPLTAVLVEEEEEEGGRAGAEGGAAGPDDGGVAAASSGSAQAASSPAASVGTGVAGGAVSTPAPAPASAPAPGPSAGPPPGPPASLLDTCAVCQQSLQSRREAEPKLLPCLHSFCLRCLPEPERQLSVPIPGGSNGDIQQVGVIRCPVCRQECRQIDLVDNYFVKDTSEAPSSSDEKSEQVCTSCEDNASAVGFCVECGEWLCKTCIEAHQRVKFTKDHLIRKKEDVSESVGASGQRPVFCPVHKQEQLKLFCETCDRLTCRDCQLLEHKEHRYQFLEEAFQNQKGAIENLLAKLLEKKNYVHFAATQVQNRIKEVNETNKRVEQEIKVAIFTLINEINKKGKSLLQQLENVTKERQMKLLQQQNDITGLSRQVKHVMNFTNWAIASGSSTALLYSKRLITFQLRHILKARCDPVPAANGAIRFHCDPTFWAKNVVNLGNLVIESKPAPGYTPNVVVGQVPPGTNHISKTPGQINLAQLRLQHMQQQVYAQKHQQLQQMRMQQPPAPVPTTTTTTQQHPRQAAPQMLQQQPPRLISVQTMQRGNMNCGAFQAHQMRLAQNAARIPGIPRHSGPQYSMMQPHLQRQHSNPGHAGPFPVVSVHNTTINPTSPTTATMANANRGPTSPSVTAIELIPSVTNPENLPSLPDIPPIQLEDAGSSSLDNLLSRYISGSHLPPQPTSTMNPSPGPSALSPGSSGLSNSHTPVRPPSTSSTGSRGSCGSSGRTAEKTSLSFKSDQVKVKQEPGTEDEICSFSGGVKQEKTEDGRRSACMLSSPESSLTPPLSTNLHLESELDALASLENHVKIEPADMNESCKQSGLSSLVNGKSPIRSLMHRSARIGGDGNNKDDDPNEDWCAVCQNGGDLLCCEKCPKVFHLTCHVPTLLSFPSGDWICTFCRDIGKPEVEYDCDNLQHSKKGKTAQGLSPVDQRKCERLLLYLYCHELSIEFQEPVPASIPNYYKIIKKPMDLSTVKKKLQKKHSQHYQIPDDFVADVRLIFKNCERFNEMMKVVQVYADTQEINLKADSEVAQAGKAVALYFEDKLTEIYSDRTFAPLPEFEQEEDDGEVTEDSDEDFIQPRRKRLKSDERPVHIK
UniProt Q9Y2X7: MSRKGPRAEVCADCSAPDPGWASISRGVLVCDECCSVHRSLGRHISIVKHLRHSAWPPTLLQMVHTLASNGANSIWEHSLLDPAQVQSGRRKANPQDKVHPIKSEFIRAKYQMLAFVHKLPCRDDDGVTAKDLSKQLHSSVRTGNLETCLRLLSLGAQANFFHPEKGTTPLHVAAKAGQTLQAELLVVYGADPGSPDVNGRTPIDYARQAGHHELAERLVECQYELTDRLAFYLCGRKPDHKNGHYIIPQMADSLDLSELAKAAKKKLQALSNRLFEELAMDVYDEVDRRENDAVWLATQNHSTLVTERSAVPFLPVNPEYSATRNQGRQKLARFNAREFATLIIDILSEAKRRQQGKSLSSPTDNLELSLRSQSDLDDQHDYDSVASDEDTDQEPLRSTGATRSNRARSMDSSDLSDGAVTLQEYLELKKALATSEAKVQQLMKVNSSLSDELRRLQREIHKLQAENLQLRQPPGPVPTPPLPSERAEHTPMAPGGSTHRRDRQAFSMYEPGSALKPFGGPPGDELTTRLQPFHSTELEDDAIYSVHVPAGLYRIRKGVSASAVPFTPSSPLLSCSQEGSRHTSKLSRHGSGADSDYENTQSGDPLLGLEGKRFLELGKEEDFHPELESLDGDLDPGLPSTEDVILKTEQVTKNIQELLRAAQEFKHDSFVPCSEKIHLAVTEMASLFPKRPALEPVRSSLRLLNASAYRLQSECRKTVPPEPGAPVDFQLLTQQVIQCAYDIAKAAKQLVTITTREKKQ
UniProt Q9UJZ1: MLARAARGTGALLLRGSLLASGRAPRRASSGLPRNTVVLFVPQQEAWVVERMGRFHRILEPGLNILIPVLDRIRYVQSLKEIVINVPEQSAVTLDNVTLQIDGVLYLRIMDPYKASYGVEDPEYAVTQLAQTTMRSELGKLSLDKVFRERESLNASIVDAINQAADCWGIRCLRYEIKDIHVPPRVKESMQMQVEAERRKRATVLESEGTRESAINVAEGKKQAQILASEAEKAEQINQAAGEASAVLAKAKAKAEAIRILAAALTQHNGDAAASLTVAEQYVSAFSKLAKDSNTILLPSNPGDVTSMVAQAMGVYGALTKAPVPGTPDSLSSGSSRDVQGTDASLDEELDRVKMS
UniProt Q9ULW0, whole entry, looked up: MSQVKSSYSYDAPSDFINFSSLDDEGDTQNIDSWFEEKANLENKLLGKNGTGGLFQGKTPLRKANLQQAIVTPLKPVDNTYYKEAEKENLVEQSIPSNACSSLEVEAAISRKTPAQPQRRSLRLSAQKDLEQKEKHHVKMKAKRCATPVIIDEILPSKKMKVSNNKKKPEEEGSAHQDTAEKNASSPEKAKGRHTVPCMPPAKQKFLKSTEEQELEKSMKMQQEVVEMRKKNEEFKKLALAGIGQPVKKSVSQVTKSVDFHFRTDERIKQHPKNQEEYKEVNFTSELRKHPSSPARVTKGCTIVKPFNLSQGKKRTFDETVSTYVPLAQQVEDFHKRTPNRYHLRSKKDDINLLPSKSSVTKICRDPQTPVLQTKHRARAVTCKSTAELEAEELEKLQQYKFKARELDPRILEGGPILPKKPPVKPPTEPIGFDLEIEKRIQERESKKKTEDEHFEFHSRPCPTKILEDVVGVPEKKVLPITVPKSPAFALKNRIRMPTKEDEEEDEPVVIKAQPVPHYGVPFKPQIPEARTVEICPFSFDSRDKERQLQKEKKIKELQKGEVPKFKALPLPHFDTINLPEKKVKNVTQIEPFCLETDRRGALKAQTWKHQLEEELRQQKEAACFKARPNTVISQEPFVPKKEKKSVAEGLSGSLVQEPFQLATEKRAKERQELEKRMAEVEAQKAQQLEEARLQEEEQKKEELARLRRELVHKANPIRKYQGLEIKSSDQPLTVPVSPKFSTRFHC
UniProt Q9UHR5: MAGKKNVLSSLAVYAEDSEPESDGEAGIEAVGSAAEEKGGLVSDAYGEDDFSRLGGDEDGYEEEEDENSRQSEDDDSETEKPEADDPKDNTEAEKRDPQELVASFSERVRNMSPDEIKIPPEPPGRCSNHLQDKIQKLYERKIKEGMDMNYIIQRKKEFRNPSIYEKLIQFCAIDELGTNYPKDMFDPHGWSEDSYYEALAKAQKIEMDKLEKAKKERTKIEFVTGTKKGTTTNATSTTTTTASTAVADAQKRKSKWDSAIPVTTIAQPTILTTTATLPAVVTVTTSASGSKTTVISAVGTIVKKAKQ

Only a part is listed here, and it is no random draw. The data scatter; read single values as rough.

Compound in the assay: COC(=O)/C=C/c1ccccc1 [methyl cinnamate]
Description: log2 ratio of iodoacetamide-alkyne labeling of the cysteine site, DMSO over compound (competition); higher = stronger covalent engagement of the cysteine by the compound, active = 1 or more. To be noted: 500 µM; treatment time 1 h; system: HEK293T cell lysate. The essentials:
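Reporter intensities give each cysteine's log2 competition ratio as the mean of control channels over the mean of compound channels. The samples were HEK293T lysate (2 mg/mL) given vehicle or electrophile (500 µM, 1 h, ambient temperature), then iodoacetamide alkyne (1 h), followed by click coupling to sCIP-TMT reagents, pooling, trypsin digestion overnight at 37 °C, streptavidin enrichment, acid elution, Orbitrap Eclipse LC-MS/MS with FAIMS and FragPipe quantification. Duplicate channels and three replicates were run, and cysteines quantified in only one replicate were discarded.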
As to NOP58 C205 (UniProt Q9Y2X3), the “log2 ratio of iodoacetamide-alkyne labeling” value (“log2 ratio” below) is inactive: 0.121. In the case of RRP7A C82 (UniProt Q9Y3A4), the “log2 ratio” value is inactive: 0.216.

In the case of UniProt Q9UPN4_C159, the “log2 ratio” value is inactive: 0.256. Turning to ZMYND8 C196 (UniProt Q9ULU4), the “log2 ratio” value is inactive: -0.149. Consider DIS3 C213 (UniProt Q9Y2L1), for which the “log2 ratio” value is inactive: 0.165. Next, CNOT7 C18 (UniProt Q9UIV1): inactive: 0.16; INTS6 C783 (UniProt Q9UL03): inactive: 0.554. For VPS51 C254 (UniProt Q9UID3) the value was inactive: 0.671; for STRAP C340 (UniProt Q9Y3F4), inactive: 0.00348; for DCTN4 C30 (UniProt Q9UJW0), inactive: -0.227. In the case of UniProt Q9UHD8_C531, the “log2 ratio” value was inactive: 0.11. Next, MAGED2 C516 (UniProt Q9UNF1): inactive: 0.158. Next, EXOC6B C68 (UniProt Q9Y2D4): inactive: -0.103. For DDX20 C181 (UniProt Q9UHI6) the value was inactive: 0.101; for SLC39A10 C153 (UniProt Q9ULF5), inactive: 0.912. For the target AGTPBP1 C558 (UniProt Q9UPW5), the “log2 ratio” value was inactive: 0.207. NFU1 C213 (UniProt Q9UMS0): the “log2 ratio” value was inactive: 0.536. In the case of GTF3C4 C817 (UniProt Q9UKN8), the “log2 ratio” value was inactive: 0.0649. On to HECTD1 C254 (UniProt Q9ULT8), for which the “log2 ratio” value is inactive: 0.29. Next, USP24 C1628 (UniProt Q9UPU5): inactive: 0.159; TRIM33 C461 (UniProt Q9UPN9): inactive: 0.153. For GIT1 C576 (UniProt Q9Y2X7) the value was inactive: 0.355; for NUDT5 C76 (UniProt Q9UKK9), inactive: 0.163. Take UniProt Q9Y2D5_C296: the “log2 ratio” value is inactive: 0.254. On to STOML2 C167 (UniProt Q9UJZ1), for which the “log2 ratio” value is inactive: -0.199. As for CPSF3 C223 (UniProt Q9UKF6), the “log2 ratio” value was inactive: 0.0639. For SNX6 C264 (UniProt Q9UNH7), the “log2 ratio” value was inactive: -0.148.

With RCL1 C13 (UniProt Q9Y2P8), the “log2 ratio” value is inactive: -0.209. For the target MTMR6 C569 (UniProt Q9Y217), the “log2 ratio” value is inactive: 0.321. For ZNHIT2 C188 (UniProt Q9UHR6), the “log2 ratio” value is inactive: 0.0727. For TPX2 C145 (UniProt Q9ULW0) the value was inactive: -0.0179; for NOP58 C106 (UniProt Q9Y2X3), inactive: -0.128. On to BAZ1B C994 (UniProt Q9UIG0), for which the “log2 ratio” value is inactive: 0.0301. Consider PRPF19 C230 (UniProt Q9UMS4), for which the “log2 ratio” value is inactive: 0.284. As to SAP30BP C172 (UniProt Q9UHR5), the “log2 ratio” value was inactive: 0.0983. For SRRM2 C2116 (UniProt Q9UQ35) the value was inactive: 0.0494. For DIS3 C533 (UniProt Q9Y2L1), the “log2 ratio” value is inactive: 0.155.
